Binding data for 1 molecule are collected here from publication PMC5432220.

Protein sequences, listed by entry. Tags and fused reporters are not part of them.
UniProt P02340: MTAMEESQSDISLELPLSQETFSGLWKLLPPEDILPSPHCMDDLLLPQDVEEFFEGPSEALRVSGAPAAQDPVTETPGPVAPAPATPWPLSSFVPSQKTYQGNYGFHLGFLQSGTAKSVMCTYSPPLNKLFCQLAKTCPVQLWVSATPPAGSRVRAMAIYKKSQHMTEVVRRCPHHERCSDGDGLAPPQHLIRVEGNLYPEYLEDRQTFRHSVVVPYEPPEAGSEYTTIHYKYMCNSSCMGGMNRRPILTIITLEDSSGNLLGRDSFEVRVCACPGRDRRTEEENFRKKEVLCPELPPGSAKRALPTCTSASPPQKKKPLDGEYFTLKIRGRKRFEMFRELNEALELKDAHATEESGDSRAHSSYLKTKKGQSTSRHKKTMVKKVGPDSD

The test has as its target p53 (mouse (endogenous in mouse spleen)) (UniProt P02340). Kind of test: co-IP; 1 mg of spleen lysate (NP-40 buffer) of wild type, 2MX-S and 8MX-S mice precipitated with anti-p53 antibody (CM5), blotted with anti-Mdm4 (MX-82) or anti-p53 (FL393); 10% of lysate as input.

Results are given in words; binding and its absence hold for the method and conditions named. Binding seen in cells or lysates may run through a third protein. Some binding calls cover weakened binding; strength is not graded here.

B1: Mdm4 (protein, UniProt O35618 1-489)
chain: MTSHSTSAQCSASDSACRISSEQISQVRPKLQLLKILHAAGAQGEVFTMKEVMHYLGQYIMVKQLYDQQEQHMVYCGGDLLGDLLGCQSFSVKDPSPLYDMLRKNLVTSASINTDAAQTLALAQDHTMDFPSQDRLKHGATEYSNPRKRTEEEDTHTLPTSRHKCRDSRADEDLIEHLSQDETSRLDLDFEEWDVAGLPWWFLGNLRNNCIPKSNGSTDLQTNQDIGTAIVSDTTDDLWFLNETVSEQLGVGIKVEAANSEQTSEVGKTSNKKTVEVGKDDDLEDSRSLSDDTDVELTSEDEWQCTECKKFNSPSKRYCFRCWALRKDWYSDCSKLTHSLSTSNITAIPEKKDNEGIDVPDCRRTISAPVVRPKDGYLKEEKPRFDPCNSVGFLDLAHSSESQEIISSAREQTDIFSEQKAETESMEDFQNVLKPCSLCEKRPRDGNIIHGKTSHLTTCFHCARRLKKSGASCPACKKEIQLVIKVFIA
With B1, the binding entry is recorded as “binds”.
